The text below walks through data of patent publication US20260183367A1.

The chains behind the UniProt entries cited, without tags or fusion partners. Residues count along the entry.
UniProt P49790, residues 2-1475: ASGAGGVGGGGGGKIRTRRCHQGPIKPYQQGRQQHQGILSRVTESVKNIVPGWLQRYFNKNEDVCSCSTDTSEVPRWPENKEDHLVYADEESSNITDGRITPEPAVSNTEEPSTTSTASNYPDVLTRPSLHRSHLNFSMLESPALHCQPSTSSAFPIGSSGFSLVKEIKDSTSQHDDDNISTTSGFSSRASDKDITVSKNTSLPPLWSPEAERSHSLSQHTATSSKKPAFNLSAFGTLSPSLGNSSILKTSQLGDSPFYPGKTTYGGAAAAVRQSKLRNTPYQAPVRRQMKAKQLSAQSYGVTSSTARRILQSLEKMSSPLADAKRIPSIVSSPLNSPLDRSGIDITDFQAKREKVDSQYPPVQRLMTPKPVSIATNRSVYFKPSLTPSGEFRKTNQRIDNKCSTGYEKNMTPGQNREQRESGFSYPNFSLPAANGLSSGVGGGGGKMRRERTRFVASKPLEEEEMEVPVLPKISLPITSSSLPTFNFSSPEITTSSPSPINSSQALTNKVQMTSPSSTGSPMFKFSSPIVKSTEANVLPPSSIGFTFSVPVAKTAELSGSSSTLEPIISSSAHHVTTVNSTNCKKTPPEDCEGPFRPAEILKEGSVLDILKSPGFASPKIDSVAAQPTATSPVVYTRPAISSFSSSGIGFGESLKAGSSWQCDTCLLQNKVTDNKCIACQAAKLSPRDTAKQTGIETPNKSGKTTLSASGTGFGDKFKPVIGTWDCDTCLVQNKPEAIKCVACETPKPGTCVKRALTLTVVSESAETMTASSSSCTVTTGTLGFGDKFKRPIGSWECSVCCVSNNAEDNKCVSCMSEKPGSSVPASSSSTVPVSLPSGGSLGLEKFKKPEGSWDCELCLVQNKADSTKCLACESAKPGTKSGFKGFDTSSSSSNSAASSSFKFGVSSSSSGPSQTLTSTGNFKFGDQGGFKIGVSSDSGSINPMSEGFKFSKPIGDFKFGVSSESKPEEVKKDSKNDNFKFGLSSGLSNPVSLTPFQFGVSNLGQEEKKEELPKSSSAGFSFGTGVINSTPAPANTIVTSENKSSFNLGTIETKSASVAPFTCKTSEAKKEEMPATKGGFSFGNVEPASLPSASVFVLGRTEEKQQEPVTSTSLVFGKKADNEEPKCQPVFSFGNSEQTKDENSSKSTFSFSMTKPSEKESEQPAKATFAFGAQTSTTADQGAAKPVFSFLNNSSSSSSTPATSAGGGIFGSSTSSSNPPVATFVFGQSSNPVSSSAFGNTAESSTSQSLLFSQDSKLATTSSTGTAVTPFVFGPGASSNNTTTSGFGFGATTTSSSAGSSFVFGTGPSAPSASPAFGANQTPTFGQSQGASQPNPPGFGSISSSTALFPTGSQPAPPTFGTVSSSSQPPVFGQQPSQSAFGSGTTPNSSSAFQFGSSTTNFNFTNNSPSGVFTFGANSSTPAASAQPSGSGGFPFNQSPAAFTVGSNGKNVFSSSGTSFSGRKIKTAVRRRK

No constants are given. Whether binding was seen depends on the method and setting. Binding seen in cells or lysates may run through a third protein. Some results given as binding are weak or reduced against the parent protein; the word gives no strength. Tags and fused reporters may be left off the sequences shown.

One experiment deals with GFP-TDP-43-mNLS (UniProt Q13148). The experiment in a line: co-immunoprecipitation from HEK293 cells, immunoblot. On the technique in general: In western blotting, separated proteins are transferred to a membrane and probed.
The target of another experiment is Nup153 (UniProt P49790). Described as above.

B1: mCherry-tagged Nup50-N (1-210) (protein, not shown: large carriers)
chain: MAKRNAEKELTDRNWDQEDEAEDVGTFSMASEEVLKNRAIKKAKRRNVGFESDTGGAFKGFKGLVVPSGGGRFSGFGSGAGGKPLEGLSNGNNITSAPPFASAKAAADPKVAFGSLAANGPTTLVDKVSNPKTNGDSQQPSSSGLASSKACVGNAYHKQLAALNCSVRDWIVKHVNTNPLCDLTPIFKDYEKYLANIEQQHGNSGRNSES
With B1, the binding result in the experiment with GFP-TDP-43-mNLS and with Nup153 was “binds” each time.

B2: mCherry-tagged Nup50 160-200 (peptide, not shown: large carriers)
chain: LAALNCSVRDWIVKHVNTNPLCDLTPIFKDYEKYLANIEQQ
Regarding B2, the binding entry with GFP-TDP-43-mNLS and in the experiment with Nup153 was “binds” in each case.
